# Cleaved PARP in drug-treated melanoma cells

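Human melanoma cell lines in 1,536-well plates were treated with two drugs together for 72 h, then fixed, stained and imaged. Values are the share of nuclei positive for cleaved PARP as a percentage of the same share in the DMSO control: 100 is the control level, higher means more apoptosis. Concentrations were fixed for each drug; these are the higher of two levels. No replicate spread is given; individual values may be noisy. The marker varies much from line to line, for technical or biological reasons.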
An unselected part of the screen is shown.
An entry leaves out what has no value listed here.

Drugs:
cisplatin (8 µM): N.N.[Cl][Pt][Cl]
nilotinib (1 µM): Cc1cn(-c2cc(NC(=O)c3ccc(C)c(Nc4nccc(-c5cccnc5)n4)c3)cc(C(F)(F)F)c2)cn1
ABT-263 (2 µM): CC1(C)CCC(c2ccc(Cl)cc2)=C(CN2CCN(c3ccc(C(=O)NS(=O)(=O)c4ccc(N[C@H](CCN5CCOCC5)CSc5ccccc5)c(S(=O)(=O)C(F)(F)F)c4)cc3)CC2)C1
PLX4720 (0.4 µM): CCCS(=O)(=O)Nc1ccc(F)c(C(=O)c2c[nH]c3ncc(Cl)cc23)c1F
AZD7762 (0.1 µM): NC(=O)Nc1cc(-c2cccc(F)c2)sc1C(=O)N[C@H]1CCCNC1
sunitinib (2 µM): CCN(CC)CCNC(=O)c1c(C)[nH]c(/C=C2\C(=O)Nc3ccc(F)cc32)c1C
decitabine (0.5 µM): Nc1ncn([C@H]2C[C@H](O)[C@@H](CO)O2)c(=O)n1
SNS-314 (0.004 µM): O=C(Nc1cccc(Cl)c1)Nc1ncc(CCNc2ncnc3ccsc23)s1
cediranib (2 µM): COc1cc2c(Oc3ccc4[nH]c(C)cc4c3F)ncnc2cc1OCCCN1CCCC1

- PLX4720 + SNS-314 | A101D: 244; SK-MEL-2: 198; MeWo: 203; MZ2-MEL: 398
- cisplatin + cediranib | A101D: 130; SK-MEL-2: 63.2; MeWo: 89.9; MZ2-MEL: 135
- SNS-314 + AZD7762 | A101D: 165; MeWo: 305
- SNS-314 + decitabine | A101D: 77.5; SK-MEL-2: 138; MeWo: 131; MZ2-MEL: 145
- decitabine + cediranib | A101D: 117; SK-MEL-2: 101; MeWo: 90.0; MZ2-MEL: 258
- PLX4720 + sunitinib | A375: 301; A101D: 127; SK-MEL-2: 89.8; MeWo: 141; MZ2-MEL: 33.8
- decitabine + ABT-263 | A375: 830; A101D: 176; SK-MEL-2: 145; MeWo: 247; MZ2-MEL: 317
- decitabine + nilotinib | A375: 62.6; A101D: 51.9; SK-MEL-2: 46.4; MeWo: 162; MZ2-MEL: 79.7
- AZD7762 + cediranib | A101D: 461; SK-MEL-2: 147; MeWo: 356; MZ2-MEL: 209
- ABT-263 + PLX4720 | A375: 78.8; A101D: 141; SK-MEL-2: 164; MeWo: 161; MZ2-MEL: 320
- PLX4720 + nilotinib | A375: 106; A101D: 43.1; SK-MEL-2: 80.5; MeWo: 95.3
- cisplatin + AZD7762 | A101D: 252; SK-MEL-2: 326; MeWo: 292; MZ2-MEL: 600
- AZD7762 + sunitinib | A101D: 634; SK-MEL-2: 81.1; MeWo: 130; MZ2-MEL: 114
- ABT-263 + cediranib | A101D: 324; SK-MEL-2: 98.3; MeWo: 156; MZ2-MEL: 441
- decitabine + cisplatin | A375: 284; A101D: 104; SK-MEL-2: 102; MeWo: 354; MZ2-MEL: 92.4
- sunitinib + ABT-263 | A375: 423; A101D: 329; SK-MEL-2: 314; MeWo: 385; MZ2-MEL: 446
- SNS-314 + cediranib | A101D: 129; SK-MEL-2: 43.8; MeWo: 72.5; MZ2-MEL: 104
- cisplatin + PLX4720 | A375: 73.6; A101D: 143; SK-MEL-2: 177; MeWo: 71.9; MZ2-MEL: 121
- decitabine + sunitinib | A375: 42.0; A101D: 108; SK-MEL-2: 119; MeWo: 51.8; MZ2-MEL: 155
- AZD7762 + PLX4720 | A101D: 72.1; MeWo: 524
- nilotinib + cisplatin | A375: 262; A101D: 191; SK-MEL-2: 195; MeWo: 148; MZ2-MEL: 217
- sunitinib + cisplatin | A375: 221; A101D: 120; SK-MEL-2: 95.7; MeWo: 143; MZ2-MEL: 86.7

The last 2 entries again:

Combination	A375	A101D	SK-MEL-2	MeWo	MZ2-MEL
nilotinib + cisplatin	262	191	195	148	217
sunitinib + cisplatin	221	120	95.7	143	86.7

Values as published with doi:10.1371/journal.pone.0140310, rounded.